From PubChem BioAssay AID250 (DTP/NCI, 2004)
The list does not hold the whole screen: it gathers tests that were run many times, whatever their T/C, doses with no T/C, and many T/C values between a quarter and a half above the control. Further doses and runs are listed elsewhere. T/C gives the treated animals as a percentage of the vehicle group. Some doses have a count of surviving animals in place of a T/C: the source holds a T/C of zero for them, seemingly a mark for toxic or unscored doses. For part of these data: Survivors were counted at the toxicity check, usually on the fifth day, unless a day is given; later deaths do not show. Schedules are NCI's codes, read here as Q, the interval in days (D) or hours (H), X, the number of doses. Some schedules carry Z or #; the key to these is not given. Some doses were run more than once; the results are listed from low to high. Where survival is the endpoint, this PubChem deposit counts one and a half times the control or more as active, and values a quarter to a half above the control carry no call in these data; other NCI protocols may use other cut-offs. Signs of the kind (2×) stand for listed records that agree. Some T/C values are followed by the survivors on the day toxicity was checked, most often the fifth; without a count, all were alive then.

How the values were obtained:
[1] = system: BDF1 mice, L1210 leukemia sc, survival T/C; assay: NCI In Vivo Anticancer Drug Screen. Data for tumor model L1210 Leukemia (subcutaneous) in B6D2F1 (BDF1) mice; conditions: T/C endpoint: median survival time, higher T/C = longer survival
Method in brief: (§1)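 Mice carrying transplanted tumors received test compounds, and survival or tumor size was measured. Values are the treated-group measurement (T) divided by that of the vehicle-treated control group (C).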

[2] = system: BDF1 mice, L1210 leukemia sc; assay: as above; conditions: T/C endpoint: median survival time, higher T/C = longer survival
Method in brief: as §1

[3] = dose: 8.4 mg/kg/injection, schedule: Q01DX Z (sc), vehicle: methylcellulose (MC)
[4] = dose: 14.0 mg/kg/injection, schedule: Q01DX Z (sc), vehicle: methylcellulose (MC)
[5] = dose: 39.0 mg/kg/injection, schedule: Q01DX Z (sc), vehicle: methylcellulose (MC)
[6] = dose: 39.0 mg/kg/injection, schedule: Q01DX Z (sc), vehicle: other, run until all animals had died
[7] = dose: 65.0 mg/kg/injection, schedule: Q01DX Z (sc), vehicle: methylcellulose (MC)
[8] = dose: 65.0 mg/kg/injection, schedule: Q01DX Z (sc), vehicle: other, run until all animals had died
[9] = dose: 108.0 mg/kg/injection, schedule: Q01DX Z (sc), vehicle: methylcellulose (MC)
[10] = dose: 108.0 mg/kg/injection, schedule: Q01DX Z (sc), vehicle: other, run until all animals had died
[11] = dose: 180.0 mg/kg/injection, schedule: Q01DX Z (oral), vehicle: methylcellulose (MC)
[12] = dose: 180.0 mg/kg/injection, schedule: Q01DX Z (sc), vehicle: other, run until all animals had died
[13] = dose: 300.0 mg/kg/injection, schedule: Q01DX001 (sc), vehicle: other
[14] = dose: 300.0 mg/kg/injection, schedule: Q01DX Z (sc), vehicle: other
[15] = dose: 500.0 mg/kg/injection, schedule: Q01DX Z (oral), vehicle: methylcellulose (MC)

`S=c1nc[nH]c2nc[nH]c12` was tested, and the survivor count ([1]; dose: 5.0 mg/kg/injection, schedule: Q01DX Z (sc), vehicle: methylcellulose (MC)) was 4 of 10, the survivor count ([1]; dose: 8.4 mg/kg/injection, schedule: Q01DX Z (oral), vehicle: methylcellulose (MC)) was 4 of 10 and the T/C [1, 3] was 100 [8 of 10 alive] and 100 % of control [9 of 10 alive]. For the same compound, the survivor count [1, 3] was 1 of 10 and 3 of 10, the T/C [1, 4] was 109 % of control [9 of 10 alive] and the survivor count [1, 4] was 0 of 10 and 6 of 10. The survivor count ([1]; dose: 23.0 mg/kg/injection, schedule: Q01DX Z (oral), vehicle: methylcellulose (MC)) was 0 of 10, the survivor count ([1]; dose: 23.0 mg/kg/injection, schedule: Q01DX Z (sc), vehicle: methylcellulose (MC)) was 3 of 10 and 6 of 10 and the T/C ([1]; dose: 23.0 mg/kg/injection, schedule: Q01DX Z (sc), vehicle: other, evaluated on day 40) was 120 % of control. For the same compound, the T/C ([1]; dose: 23.0 mg/kg/injection, schedule: Q01DX Z (sc), vehicle: other, evaluated on day 60) was 100 % of control, the T/C ([1]; dose: 23.0 mg/kg/injection, schedule: Q01DX Z (sc), vehicle: other, run until all animals had died) was 95, 100 (2×), 105 % of control and the survivor count ([1]; dose: 39.0 mg/kg/injection, schedule: Q01DX Z (oral), vehicle: methylcellulose (MC)) was 0 of 10 and 5 of 10. The survivor count [1, 5] was 2 of 10 and 6 of 10, the T/C ([1]; dose: 39.0 mg/kg/injection, schedule: Q01DX Z (sc), vehicle: other, evaluated on day 60) was 104 % of control and the T/C [1, 6] was 94, 105 [8 of 10 alive], 110, 155 % of control. For the same compound, the survivor count ([1]; dose: 65.0 mg/kg/injection, schedule: Q01DX Z (oral), vehicle: methylcellulose (MC)) was 1 of 10, the survivor count [1, 7] was 2 of 10 and the T/C ([1]; dose: 65.0 mg/kg/injection, schedule: Q01DX Z (sc), vehicle: other, evaluated on day 40) was 165 % of control. The T/C ([1]; dose: 65.0 mg/kg/injection, schedule: Q01DX Z (sc), vehicle: other, evaluated on day 60) was 154 % of control, the T/C [1, 8] was 120, 150, 166, 170, 173 % of control and the survivor count ([1]; dose: 108.0 mg/kg/injection, schedule: Q01DX Z (oral), vehicle: methylcellulose (MC)) was 1 of 10. For the same compound, the T/C [1, 9] was 155 % of control [7 of 10 alive], the T/C ([1]; dose: 108.0 mg/kg/injection, schedule: Q01DX Z (sc), vehicle: other, evaluated on day 40) was 155 % of control and the T/C ([1]; dose: 108.0 mg/kg/injection, schedule: Q01DX Z (sc), vehicle: other, evaluated on day 60) was 154 % of control. For the same compound, the T/C [1, 10] was 90 [9 of 10 alive], 150 (2×), 159, 168, 177, 180 % of control, the survivor count [1, 11] was 3 of 10 and the T/C ([1]; dose: 180.0 mg/kg/injection, schedule: Q01DX Z (sc), vehicle: other, evaluated on day 40) was 110 % of control. The survivor count ([1]; dose: 180.0 mg/kg/injection, schedule: Q01DX Z (sc), vehicle: other) was 2 of 10, the T/C [1, 12] was 150 (2×), 154, 155, 157 % of control and the survivor count ([1]; dose: 240.0 mg/kg/injection, schedule: Q01DX009 (ip), vehicle: saline) was 5 of 10. For the same compound, the survivor count [1, 13] was 5 of 10, the survivor count ([1]; dose: 300.0 mg/kg/injection, schedule: Q01DX Z (oral), vehicle: methylcellulose (MC)) was 5 of 10 and the survivor count [1, 14] was 4 of 10 and 6 of 10. The survivor count ([1]; dose: 300.0 mg/kg/injection, schedule: Q02DX Z (sc), vehicle: other) was 6 of 10, the survivor count ([1]; dose: 300.0 mg/kg/injection, schedule: Q07DX Z (sc), vehicle: other) was 5 of 8 and the survivor count ([1]; dose: 300.0 mg/kg/injection, schedule: Q## X Z (sc), vehicle: other) was 4 of 10. The survivor count ([1]; dose: 500.0 mg/kg/injection, schedule: Q01DX001 (sc), vehicle: other) was 2 of 10, the survivor count [1, 15] was 5 of 10 and the survivor count ([1]; dose: 500.0 mg/kg/injection, schedule: Q07DX Z (sc), vehicle: other) was 1 of 10. The survivor count ([1]; dose: 500.0 mg/kg/injection, schedule: Q## X Z (sc), vehicle: other) was 4 of 10, the T/C ([2]; dose: 8.4 mg/kg/injection, schedule: Q## X Z (sc), vehicle: other) was 147 % of control and the T/C ([2]; dose: 10.0 mg/kg/injection, schedule: Q01DX009 (ip), vehicle: other) was 137 % of control. For the same compound, the T/C ([2]; dose: 14.0 mg/kg/injection, schedule: Q## X Z (sc), vehicle: other) was 147 % of control, the T/C ([2]; dose: 20.0 mg/kg/injection, schedule: Q01DX009 (ip), vehicle: other) was 137 % of control and the T/C ([2]; dose: 23.0 mg/kg/injection, schedule: Q## X Z (sc), vehicle: other) was 147 % of control (2×). For the same compound, the T/C ([2]; dose: 23.3 mg/kg/injection, schedule: Q01DX Z (sc), vehicle: methylcellulose (MC)) was 145 % of control, the T/C ([2]; dose: 25.0 mg/kg/injection, schedule: Q01DX012 (ip), vehicle: other) was 133 % of control and the T/C ([2]; dose: 28.0 mg/kg/injection, schedule: Q01DX Z (sc), vehicle: methylcellulose (MC)) was 135 % of control. For the same compound, the T/C ([2]; dose: 38.9 mg/kg/injection, schedule: Q01DX Z (sc), vehicle: methylcellulose (MC)) was 145 % of control, the T/C [2, 5] was 136 % of control [7 of 10 alive] and the T/C ([2]; dose: 39.0 mg/kg/injection, schedule: Q01DX Z (sc), vehicle: other, evaluated on day 40) was 130 % of control. For the same compound, the T/C [2, 6] was 147 % of control, the T/C ([2]; dose: 39.0 mg/kg/injection, schedule: Q## X Z (sc), vehicle: other) was 147 % of control and the T/C ([2]; dose: 40.0 mg/kg/injection, schedule: Q01DX009 (sc), vehicle: other) was 143 % of control. The T/C ([2]; dose: 46.8 mg/kg/injection, schedule: Q01DX Z (sc), vehicle: other) was 129 % of control, the T/C ([2]; dose: 60.0 mg/kg/injection, schedule: Q01DX009 (ip), vehicle: saline, evaluated on day 5) was 147 % of control and the T/C ([2]; dose: 60.0 mg/kg/injection, schedule: Q01DX009 (ip), vehicle: saline, evaluated on day 8) was 147 % of control. For the same compound, the T/C ([2]; dose: 60.0 mg/kg/injection, schedule: Q01DX009 (ip), vehicle: saline, evaluated on day 30) was 144 % of control, the T/C ([2]; dose: 64.8 mg/kg/injection, schedule: Q01DX Z (sc), vehicle: methylcellulose (MC)) was 140 and 145 % of control and the T/C [2, 7] was 145 % of control [7 of 10 alive]. The T/C [2, 8] was 136 % of control, the T/C ([2]; dose: 65.0 mg/kg/injection, schedule: Q## X Z (sc), vehicle: other) was 136 % of control and the T/C ([2]; dose: 65.0 mg/kg/injection, schedule: Q#A X Z (sc), vehicle: other) was 147 % of control. The T/C ([2]; dose: 100.0 mg/kg/injection, schedule: Q01DX012 (ip), vehicle: other) was 138 % of control, the T/C [2, 9] was 127, 130, 140, 145 % of control and the T/C [2, 10] was 147 % of control. For the same compound, the T/C ([2]; dose: 108.0 mg/kg/injection, schedule: Q## X Z (sc), vehicle: other) was 126 % of control, the T/C ([2]; dose: 108.0 mg/kg/injection, schedule: Q#A X Z (sc), vehicle: other) was 147 % of control and the T/C ([2]; dose: 130.0 mg/kg/injection, schedule: Q01DX Z (oral), vehicle: methylcellulose (MC)) was 136 % of control. The T/C ([2]; dose: 130.0 mg/kg/injection, schedule: Q01DX Z (sc), vehicle: methylcellulose (MC)) was 140 % of control, the T/C ([2]; dose: 180.0 mg/kg/injection, schedule: Q01DX001 (sc), vehicle: other) was 126 % of control and the T/C [2, 11] was 140 % of control [9 of 10 alive]. The T/C ([2]; dose: 180.0 mg/kg/injection, schedule: Q01DX Z (oral), vehicle: other) was 140 % of control, the T/C ([2]; dose: 180.0 mg/kg/injection, schedule: Q01DX Z (sc), vehicle: methylcellulose (MC)) was 131 % of control and the T/C [2, 12] was 142 and 144 % of control. For the same compound, the T/C ([2]; dose: 180.0 mg/kg/injection, schedule: Q02DX Z (sc), vehicle: other) was 147 % of control, the T/C ([2]; dose: 180.0 mg/kg/injection, schedule: Q07DX Z (sc), vehicle: other) was 126 % of control and the T/C ([2]; dose: 180.0 mg/kg/injection, schedule: Q## X Z (sc), vehicle: other) was 126 and 147 % of control. The T/C ([2]; dose: 180.0 mg/kg/injection, schedule: Q#A X Z (sc), vehicle: other) was 147 % of control, the T/C ([2]; dose: 216.0 mg/kg/injection, schedule: Q01DX Z (sc), vehicle: methylcellulose (MC)) was 130 % of control and the T/C ([2]; dose: 216.0 mg/kg/injection, schedule: Q01DX Z (sc), vehicle: other) was 133 % of control [9 of 10 alive]. For the same compound, the T/C [2, 13] was 126 % of control [6 of 8 alive], the T/C ([2]; dose: 300.0 mg/kg/injection, schedule: Q01DX Z (oral), vehicle: other) was 135 % of control and the T/C ([2]; dose: 300.0 mg/kg/injection, schedule: Q01DX Z (sc), vehicle: methylcellulose (MC)) was 127 % of control. The T/C [2, 14] was 127, 130 [8 of 10 alive], 140 % of control, the T/C [2, 15] was 140 % of control and the T/C ([2]; dose: 500.0 mg/kg/injection, schedule: Q02DX Z (sc), vehicle: other) was 127 % of control [8 of 10 alive].
